Reference: article PMC10454406
No constants are given. Whether binding was seen depends on the method and setting. In cells and extracts the contact can be indirect. A yes stands for co-enrichment or nearness to the bait. Other partners may have been found. For some of these results: No binding means not detected with the bait.

Sequences of proteins named here, by UniProt entry; tags and fusion partners are left off.
UniProt P0DTC4: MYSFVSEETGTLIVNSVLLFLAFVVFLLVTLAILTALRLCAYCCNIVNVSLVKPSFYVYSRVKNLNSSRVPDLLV

B1: protein lin-7 homolog A (protein, UniProt O14910 1-233)
chain: MLKPSVTSAPTADMATLTVVQPLTLDRDVARAIELLEKLQESGEVPVHKLQSLKKVLQSEFCTAIREVYQYMHETITVNGCPEFRARATAKATVAAFAASEGHSHPRVVELPKTDEGLGFNVMGGKEQNSPIYISRIIPGGVAERHGGLKRGDQLLSVNGVSVEGEHHEKAVELLKAAKDSVKLVVRYTPKVLEEMEARFEKLRTARRRQQQQLLIQQQQQQQQQQTQQNHMS
B2: membrane palmitoylated protein 1 (protein, UniProt Q00013 1-466)
chain: MTLKASEGESGGSMHTALSDLYLEHLLQKRSRPEAVSHPLNTVTEDMYTNGSPAPGSPAQVKGQEVRKVRLIQFEKVTEEPMGITLKLNEKQSCTVARILHGGMIHRQGSLHVGDEILEINGTNVTNHSVDQLQKAMKETKGMISLKVIPNQQSRLPALQMFMRAQFDYDPKKDNLIPCKEAGLKFATGDIIQIINKDDSNWWQGRVEGSSKESAGLIPSPELQEWRVASMAQSAPSEAPSCSPFGKKKKYKDKYLAKHSSIFDQLDVVSYEEVVRLPAFKRKTLVLIGASGVGRSHIKNALLSQNPEKFVYPVPYTTRPPRKSEEDGKEYHFISTEEMTRNISANEFLEFGSYQGNMFGTKFETVHQIHKQNKIAILDIEPQTLKIVRTAELSPFIVFIAPTDQGTQTEALQQLQKDSEAIRSQYAHYFDLSLVNNGVDETLKKLQEAFDQACSSPQWVPVSWVY
B3: RAE1 (protein, UniProt P78406 1-368)
chain: MSLFGTTSGFGTSGTSMFGSATTDNHNPMKDIEVTSSPDDSIGCLSFSPPTLPGNFLIAGSWANDVRCWEVQDSGQTIPKAQQMHTGPVLDVCWSDDGSKVFTASCDKTAKMWDLSSNQAIQIAQHDAPVKTIHWIKAPNYSCVMTGSWDKTLKFWDTRSSNPMMVLQLPERCYCADVIYPMAVVATAERGLIVYQLENQPSEFRRIESPLKHQHRCVAIFKDKQNKPTGFALGSIEGRVAIHYINPPNPAKDNFTFKCHRSNGTNTSAPQDIYAVNGIAFHPVHGTLATVGSDGRFSFWDKDARTKLKTSEQLDQPISACCFNHNGNIFAYASSYDWSKGHEFYNPQKKNYIFLRNAAEELKPRNKK
B4: PALS1 (protein associated with lin-seven-1), Q8N3R9 1-675 (protein)
chain: MTTSHMNGHVTEESDSEVKNVDLASPEEHQKHREMAVDCPGDLGTRMMPIRRSAQLERIRQQQEDMRRRREEEGKKQELDLNSSMRLKKLAQIPPKTGIDNPMFDTEEGIVLESPHYAVKILEIEDLFSSLKHIQHTLVDSQSQEDISLLLQLVQNKDFQNAFKIHNAITVHMNKASPPFPLISNAQDLAQEVQTVLKPVHHKEGQELTALLNTPHIQALLLAHDKVAEQEMQLEPITDERVYESIGQYGGETVKIVRIEKARDIPLGATVRNEMDSVIISRIVKGGAAEKSGLLHEGDEVLEINGIEIRGKDVNEVFDLLSDMHGTLTFVLIPSQQIKPPPAKETVIHVKAHFDYDPSDDPYVPCRELGLSFQKGDILHVISQEDPNWWQAYREGDEDNQPLAGLVPGKSFQQQREAMKQTIEEDKEPEKSGKLWCAKKNKKKRKKVLYNANKNDDYDNEEILTYEEMSLYHQPANRKRPIILIGPQNCGQNELRQRLMNKEKDRFASAVPHTTRSRRDQEVAGRDYHFVSRQAFEADIAAGKFIEHGEFEKNLYGTSIDSVRQVINSGKICLLSLRTQSLKTLRNSDLKPYIIFIAPPSQERLRALLAKEGKNPKPEELREIIEKTREMEQNNGHYFDTAIVNSDLDKAYQELLRLINKLDTEPQWVPSTWLR

Assays:
[1] = biological target: GFP-SARS-CoV-2 E protein (wild-type E protein) (SARS-CoV-2) (UniProt P0DTC4); test: affinity purification with mass spectrometry
[2] = biological target: GFP-SARS-CoV-2 E protein (wild-type E protein) (SARS-CoV-2), P0DTC4; test: affinity purification with mass spectrometry; conditions: remark: other sources report otherwise

Binder | binding [1] | binding [2]
B1 | binds | –
B2 | binds | –
B3 | binds | –
B4 | – | no binding
